For experiment [1], the target named is G protein-coupled receptor kinase 2 (GRK2), endogenous in HUVECs (human (endogenous in HUVECs)) (UniProt P25098). The experiment is described as follows: co-IP; endogenous co-IP in HUVECs with anti-GRK2 antibodies; n = 3.
In experiment [2] the target is Myc-tagged activator protein-1 (AP-1) (UniProt P05412). The experiment is described as follows: co-IP; HEK293 cells coexpressing Flag-tagged GRK2 and Myc-tagged AP-1; immunoprecipitation by Flag and, reciprocally, by Myc; n = 3.
The target in experiment [3] is Flag-tagged G protein-coupled receptor kinase 2 (GRK2) (UniProt P25098). The experiment is described as above.

Sequences of proteins named here, by UniProt entry; tags and fusion partners are left off.
UniProt P25098: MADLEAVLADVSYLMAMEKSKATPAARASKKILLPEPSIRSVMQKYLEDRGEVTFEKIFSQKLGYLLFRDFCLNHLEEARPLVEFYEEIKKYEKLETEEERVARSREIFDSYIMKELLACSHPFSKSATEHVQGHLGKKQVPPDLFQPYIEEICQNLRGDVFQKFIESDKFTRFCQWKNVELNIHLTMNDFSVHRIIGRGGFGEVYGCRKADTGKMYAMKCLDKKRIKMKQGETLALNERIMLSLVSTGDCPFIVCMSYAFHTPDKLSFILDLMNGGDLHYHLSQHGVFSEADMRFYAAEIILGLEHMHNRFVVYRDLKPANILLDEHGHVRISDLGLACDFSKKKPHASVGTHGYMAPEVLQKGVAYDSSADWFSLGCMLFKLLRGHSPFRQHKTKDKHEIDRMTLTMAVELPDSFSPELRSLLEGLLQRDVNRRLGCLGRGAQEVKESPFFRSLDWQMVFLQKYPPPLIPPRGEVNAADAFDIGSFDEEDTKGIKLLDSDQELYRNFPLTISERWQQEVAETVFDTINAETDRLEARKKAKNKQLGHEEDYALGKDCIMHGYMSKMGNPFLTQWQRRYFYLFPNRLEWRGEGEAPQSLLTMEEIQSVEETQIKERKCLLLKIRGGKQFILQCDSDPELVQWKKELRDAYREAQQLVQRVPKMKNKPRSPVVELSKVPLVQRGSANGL
UniProt P05412: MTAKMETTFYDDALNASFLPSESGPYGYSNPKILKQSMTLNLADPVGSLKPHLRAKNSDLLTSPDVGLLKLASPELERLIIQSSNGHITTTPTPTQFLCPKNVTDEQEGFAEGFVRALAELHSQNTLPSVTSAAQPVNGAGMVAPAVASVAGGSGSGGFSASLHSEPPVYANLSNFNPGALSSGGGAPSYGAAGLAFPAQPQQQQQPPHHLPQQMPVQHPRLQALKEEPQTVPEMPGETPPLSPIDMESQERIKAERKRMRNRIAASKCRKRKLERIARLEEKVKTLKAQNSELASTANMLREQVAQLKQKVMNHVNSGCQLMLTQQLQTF

These results are taken from article PMC12412516.

Results are given in words; binding and its absence hold for the method and conditions named. Binding seen in cells or lysates may run through a third protein. Some binding calls cover weakened binding; strength is not graded here.

On to “Activator protein-1 (AP-1), endogenous in HUVECs (from UniProt P05412 1-331)”, for which the binding result in experiment [1] was “binds”. On to “Flag-tagged G protein-coupled receptor kinase 2 (GRK2) (from UniProt P25098 1-689) (enzyme)”, for which the binding entry in experiment [2] is “binds”. In the case of “Myc-tagged activator protein-1 (AP-1) (from UniProt P05412 1-331)”, the binding result in experiment [3] was “binds”.
